Paper doi:10.1101/2023.03.06.531310
These are yes or no findings as the source states them, for the method shown. Binding calls can cover weak binding; strength is not graded here. Tags and fused reporters may be left off the sequences shown.

Target: T1, GST-p107-R1R2 (human) (UniProt P28749)
T1 sequence: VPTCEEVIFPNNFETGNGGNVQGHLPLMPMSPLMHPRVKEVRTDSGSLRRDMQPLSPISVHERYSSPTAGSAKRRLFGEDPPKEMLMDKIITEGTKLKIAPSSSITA
Assay: pull-down

binding: binds
Substance: purified PP2A/B55α holoenzyme (complex)
